For at least one compound, name, drawing or mass did not settle the structure.
What was measured:
HT29 cells = assay: HT29 cell culture, quantification of immunological biomarkers; format: cell-based; conditions: effluent from 24 h fermentation, vs corresponding control
Description: Since ethanol is known to have antimicrobial effects, two blanks for each type of stock solution were included. As a source of the microbial community, a freshly prepared fecal suspension from the selected donor was added to the reactors. […] All tests, except the blanks, were performed in single repetition, resulting in 40 independent incubations, as specified in Table 1. Incubation conditions of the pre-screening experiment and the final experiment were 48 h at 37° C., under shaking (90 rpm) and anaerobic conditions. DNA were extracted from effluent samples collected from each fermentation flask before (0 h fermentation) and after fermentation (24 h fermentation) and use for microbiome composition analysis by Shotgun sequencing. Effluent samples were collected from each fermentation flask before ([…]), […] cell culture systems.
For both sets of in vitro experiments, HT29 cells were obtained from American Type Culture Collection (Manassas, VA). Cells were cultured in DMEM supplemented with 10% fetal bovine serum (FBS), 50 units/ml penicillin, 50 μg/ml streptomycin, L-glutamine, and nonessential amino acids (Life Technologies Europe B.V., Zug, Switzerland). Cells were seeded into 12-well plates at 8×10^5 cells per well and used after 2 days of preculture. They were starved in DMEM containing 0.25% FBS for 18 h before treatment. Cells were treated for 24 hours with TNF-α at 100 ng/mL or fermentation supernatants which were sterile filtered and diluted 1:20 in DMEM containing 0.25% FBS. All treatments were done in triplicate. Consequently, cytokines, chemokines and interleukins were quantified in HT29 supernatants using the Luminex Technology (LiquiChip Workstation IS 200, Qiagen, Hilden, Germany) with Bio-Plex Pro Human Cytokine Panel kits (Bio-Rad, Hercules, CA) or with Luminex Screening Assay kits (R&D Systems, Inc., Minneapolis, MN), following the manufacturer's instructions. The data were acquired with the Luminex IS 2.3 software and evaluated with the LiquiChip Analyser software (Qiagen, Hilden, Germany).

[1] = system: genes involved in Acetyl-CoA fermentation to Butyrate pathway; assay: Shotgun sequencing functional analysis: butyrate pathway genes (first set); format: cell-based, human; conditions: after 24 h fermentation, vs corresponding control
Description: (§1) Since ethanol is known to have antimicrobial effects, two blanks for each type of stock solution were included. As a source of the microbial community, a freshly prepared fecal suspension from the selected donor was added to the reactors. […] All tests, except the blanks, were performed in single repetition, resulting in 40 independent incubations, as specified in Table 1. Incubation conditions of the pre-screening experiment and the final experiment were 48 h at 37° C., under shaking (90 rpm) and anaerobic conditions. DNA were extracted from effluent samples collected from each fermentation flask before (0 h fermentation) and after fermentation (24 h fermentation) and use for microbiome composition analysis by Shotgun sequencing. Effluent samples were collected from each fermentation flask before (0 h fermentation) and after fermentation (48 h fermentation), sterilized by filtering through 0.22 μm filters and used for short chain fatty acids (SCFA), quantification of immunological biomarkers and in vitro analysis in cell culture systems.
(§2) For the first set of in vitro experiments, total DNA was extracted from all samples collected throughout the study using the QIAamp DNA stool minikit (Qiagen, Crawley, United Kingdom) according to the manufacturer's instructions, apart from addition of a bead-beating step and increasing the lysis temperature to 95° C. as described previously (McCormack et al., 2018).
(§3) After DNA isolation, DNA was quantified using the Qubit High Sensitivity DNA assay (Thermo Fisher). Whole metagenome libraries were then prepared using the Illumina Nextera XT kit (Illumina) in accordance with the manufacturer's instructions, with the following modifications: Firstly, tagmentation time was increased to 7 min and secondly, following incorporation of indices and Ampure purification of the products, the samples were each individually sized by running on an Agilent High Sensitivity Chip (Agilent) and quantified using the Qubit High Sensitivity DNA assay (Thermo Fisher) in accordance with Teagasc Sequencing Platform SOPs. The samples were then pooled equimolarly and sequenced on the Illumina NextSeq 500 with a NextSeq 500/550 v2 high-output reagent kit (300 cycles). All sequencing was done in the Teagasc sequencing facility in accordance with standard Illumina sequencing protocols.
(§4) Delivered raw FASTQ sequence files were quality checked as follows: poor quality and duplicate read removal, as well as trimming was implemented using a combination of SAM and Picard tools. Taxonomy was assigned to the reads using the Kraken software and functional analysis was performed with Super focus.

[2] = system: fecal microbial community; assay: Microbiome composition by shotgun sequencing: alpha diversity (first set); format: cell-based, human; conditions: after 24 h fermentation, vs corresponding control
Description: as §1, §2, §3, §4

Bifidobacterium = assay: Microbiome composition by shotgun sequencing: Bifidobacterium (first set); format: cell-based, human; conditions: after 24 h fermentation, vs corresponding control
Description: as §1, §2, §3, §4

[3] = system: Co-cultures of Caco-2 and HT29-MTX-E12 cells; assay: Barrier integrity, leaky gut model, apical stressor Rhamnolipids; format: cell-based; conditions: 48 h minus 0 h fermentation samples, vs corresponding control
[4] = system: Co-cultures of Caco-2 and HT29-MTX-E12 cells; assay: Barrier integrity (TEER), healthy gut model; format: cell-based; conditions: 48 h minus 0 h fermentation samples, vs corresponding control
[5] = system: Co-cultures of Caco-2 and HT29-MTX-E12 cells; assay: Barrier integrity, leaky gut model, basolateral stressor 5% EtOH; format: cell-based; conditions: 48 h minus 0 h fermentation samples, vs corresponding control

Row | Compound | IL-8 production by HT29 cells (HT29 cells; 0.2× dose) | MIP3A-CCL20 production by HT29 cells (HT29 cells; 0.2× dose) | GROa-CXCL1 production by HT29 cells (HT29 cells; 1× dose) | IL-8 production by HT29 cells (HT29 cells; 1× dose) | MIP3A-CCL20 production by HT29 cells (HT29 cells; 1× dose) | GROa-CXCL1 production by HT29 cells (HT29 cells; 5× dose) | IL-8 production by HT29 cells (HT29 cells; 5× dose) | MIP3A-CCL20 production by HT29 cells (HT29 cells; 5× dose) | relative abundance of genes involved in Acetyl-CoA fermentation to Butyrate pathway ([1]; 0.2× dose) | relative abundance of genes involved in Acetyl-CoA fermentation to Butyrate pathway ([1]; 1× dose) | relative abundance of genes involved in Acetyl-CoA fermentation to Butyrate pathway ([1]; 5× dose) | microbiome alpha diversity (Shannon diversity index) ([2]; 0.2× dose) | microbiome alpha diversity (Shannon diversity index) ([2]; 1× dose) | microbiome alpha diversity (Shannon diversity index) ([2]; 5× dose) | Bifidobacterium relative abundance (Bifidobacterium; 0.2× dose) | Bifidobacterium relative abundance (Bifidobacterium; 5× dose) | further results
1 | CC/C=C\C/C=C\C/C=C\C/C=C\C/C=C\C/C=C\CCC(=O)O [DHA, docosahexaenoic acid] | increase IL-8 production | increase MIP3A-CCL20 production | increase GROa-CXCL1 production | increase IL-8 production | increase MIP3A-CCL20 production | increase GROa-CXCL1 production | increase IL-8 production | increase MIP3A-CCL20 production | increase relative abundance | increase relative abundance | increase relative abundance | increase microbiome diversity | increase microbiome diversity | increase microbiome diversity | increase Bifidobacterium relative abundance | increase Bifidobacterium relative abundance | GROa-CXCL1 production by HT29 cells (HT29 cells; 0.2× dose): increase GROa-CXCL1 production
2 | CC/C=C\C/C=C\C/C=C\C/C=C\C/C=C\CCCC(=O)O [EPA, eicosapentaenoic acid] | increase IL-8 production | increase MIP3A-CCL20 production | increase GROa-CXCL1 production | increase IL-8 production | increase MIP3A-CCL20 production | increase GROa-CXCL1 production | increase IL-8 production | increase MIP3A-CCL20 production | increase relative abundance | increase relative abundance | increase relative abundance | increase microbiome diversity | increase microbiome diversity | increase microbiome diversity | increase Bifidobacterium relative abundance | increase Bifidobacterium relative abundance | TEER, apical induction of leaky gut cellular model ([3]; 0.2× dose): increase TEER; TEER, apical induction of leaky gut cellular model ([3]; 1× dose): increase TEER; TEER, apical induction of leaky gut cellular model ([3]; 5× dose): increase TEER; TEER, healthy gut cellular model ([4]; 0.2× dose): increase TEER; TEER, healthy gut cellular model ([4]; 1× dose): increase TEER; TEER, healthy gut cellular model ([4]; 5× dose): increase TEER; Bifidobacterium relative abundance (Bifidobacterium; 1× dose): increase Bifidobacterium relative abundance; TEER, basolateral induction of leaky gut cellular model ([5]; 0.2× dose): increase TEER; TEER, basolateral induction of leaky gut cellular model ([5]; 1× dose): increase TEER

Source: patent US12508280B2, “Formulations for improving gut health” (DSM IP ASSETS B.V., priority 2018, dated 2025)
